{
  "source": "PubChem BioAssay AID662",
  "about": "(National Center for Advancing Translational Sciences (NCATS), 2007)",
  "note": "The list shows a part of the results. Shown are side measurements of this screen, not its main read-out; they come without a call. Compounds called inactive in the main read-out are mostly missing here. The note in brackets gives the kind of curve behind each potency; many fits are weak.",
  "data": [
    {"test": "Cell signaling CRE-BLA (Fsk stim)", "conditions": "CHO CRE-bla reporter (cAMP response element driving beta-lactamase), forskolin EC10, beta-lactamase ratio; measured here: 460 nm blue channel", "outline": "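qHTS titration format; CRE-bla CHO reporter; stimulus EC10 NKH 477, a water-soluble forskolin. Read: CCF4 460/530 nm ratio. Potency expressed as AC50 for activators or inhibitors.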", "values": [
      {"smiles": "CC(=O)C(C(C)=O)c1c(Cl)c(O)c(O)c2c(C(=O)c3ccccc3)coc12", "AC50": "25.1 µM [falling, single point]"},
      {"smiles": "CC(=O)Cc1nsc(NC(=O)c2ccc(-c3cc(C(F)(F)F)ccc3Cl)o2)n1", "AC50": "5.01 µM [rising, partial curve]"},
      {"smiles": "COCCn1c(=O)c(-c2ccc(F)c(F)c2)nc2cncnc21", "AC50": "20 µM [rising, single point]"},
      {"smiles": "Cn1nc(-c2ccc(Cl)cc2)c2cc(C(=O)NCCN3CCOCC3)sc21", "AC50": "6.31 µM [rising, partial curve]"},
      {"smiles": "CC(=O)c1ccc(N2CCCC2)c(F)c1", "AC50": "12.6 µM [rising, single point]"},
      {"smiles": "O=S(=O)(NCCCCCCc1ccccc1)c1cccc2c(Cl)cccc12", "AC50": "31.6 µM [falling, single point]"},
      {"smiles": "O=C(NCCN1CCOCC1)c1cc(-c2ccc(Cl)cc2)on1", "AC50": "0.316 µM [falling, partial curve, poor fit]"},
      {"smiles": "CC1CC(C)CN(CCCNC(=O)Cc2c(C(=O)O)[nH]c3ccccc23)C1", "note": "(centres undefined)", "AC50": "20 µM [falling, partial curve]"},
      {"smiles": "N#Cc1nn(-c2ccccc2)nc1N1CCCCC1", "AC50": "0.0631 µM [falling, full curve]"},
      {"smiles": "COC(=O)CSC1=NS(=O)(=O)c2ccccc21", "AC50": "10 µM [falling, partial curve]"},
      {"smiles": "Cc1ccc(C)c2[nH]c(=O)c(CCNC(=O)c3cc4ccccc4o3)cc12", "AC50": "20 µM [falling, single point]"},
      {"smiles": "Cc1nc2nc[nH]n2c(=O)c1NC(=O)CCc1ccccc1", "AC50": "0.0631 µM [falling, partial curve]"},
      {"smiles": "O=C(CN1CCc2ccccc21)Nc1ccc2c(c1)OCO2", "AC50": "10 µM [falling, single point]"},
      {"smiles": "CN(C)c1oc(-c2ccccc2)nc1C#N", "AC50": "0.0631 µM [falling, full curve, poor fit]"},
      {"smiles": "Cc1ccc2c(c1)c1c(n2CC(O)Cn2c(C)nc3ccccc32)/C(=N\\O)CCC1", "note": "(centres undefined)", "AC50": "12.6 µM [falling, single point]"},
      {"smiles": "CCOc1ccccc1Nc1cc(C)nc2nc(C)nn12", "AC50": "12.6 µM [rising, partial curve]"},
      {"smiles": "CC(=O)Nc1ccc(-c2nc3c(C)cccc3[nH]2)cc1", "AC50": "31.6 µM [falling, single point]"},
      {"smiles": "O=C1Nc2cc(C(=O)N3CCOCC3)ccc2SC1N1CCOCC1", "note": "(centres undefined)", "AC50": "25.1 µM [rising, single point]"},
      {"smiles": "CCCCCN=C(C)c1c(O)c2ccccc2oc1=O", "AC50": "12.6 µM [rising, single point]"},
      {"smiles": "Cn1c(C(=O)N2CCc3ccccc32)cc2c(=O)n3ccccc3nc21", "AC50": "15.8 µM [rising, partial curve]"},
      {"smiles": "Cc1cc(NC(=O)COC(=O)C(Nc2ccc(C(F)(F)F)cc2Cl)C(C)C)no1", "note": "(centres undefined)", "AC50": "15.8 µM [falling, partial curve, poor fit]"},
      {"smiles": "N#CCCn1c(=O)c(-c2ccccc2)nc2cnc(Oc3ccccc3)nc21", "AC50": "10 µM [rising, partial curve]"},
      {"smiles": "O=C(NCc1ccco1)c1sc(=S)n2c1[nH]c(=O)c1ccccc12", "AC50": "12.6 µM [falling, single point]"},
      {"smiles": "COc1ccc(-n2c(Cc3cccs3)nnc2SCC(=O)Nc2ccc3c(c2)OCCO3)cc1", "AC50": "3.98 µM [falling, full curve]"},
      {"smiles": "CCOC(=O)N1CCN(C(=O)c2cnn3c(C(F)F)cc(-c4ccc(C)cc4)nc23)CC1", "AC50": "12.6 µM [rising, partial curve]"},
      {"smiles": "Cn1c(=O)c(-c2ccc(Cl)cc2)nc2cnc(N3CCNCC3)nc21", "AC50": "2 µM [rising, full curve]"},
      {"smiles": "CSc1nncc(-c2ccc(F)cc2)n1", "AC50": "15.8 µM [rising, partial curve]"},
      {"smiles": "O=C(CSc1nnc(-c2cccs2)n1-c1ccccc1)NCc1ccco1", "AC50": "6.31 µM [falling, full curve, poor fit]"},
      {"smiles": "Cc1cc(-c2ccco2)n(-c2ccccc2)n1", "AC50": "3.16 µM [rising, full curve]"},
      {"smiles": "CCOC(=O)c1sc2nc3c(cc2c1N)COC(C)(C)C3", "AC50": "12.6 µM [rising, partial curve]"},
      {"smiles": "C=CCNc1oc(-c2cccc3ccccc23)nc1C#N", "AC50": "10 µM [rising, partial curve]"},
      {"smiles": "Cc1cc2c(cc1C)C(=O)NC(C)(C)C2", "AC50": "12.6 µM [falling, partial curve]"},
      {"smiles": "Cn1c(=O)[nH]c(=O)c2c1nc(CN1CCN(c3ccccc3F)CC1)n2CCCc1ccccc1", "AC50": "3.98 µM [rising, single point]"},
      {"smiles": "CCOC(=O)c1nnn(-c2nonc2-c2ccccc2)c1C", "AC50": "3.16 µM [falling, single point]"},
      {"smiles": "c1ccc(-c2nc3nc4ccccc4nc3n2Cc2ccco2)cc1", "AC50": "10 µM [rising, single point]"},
      {"smiles": "COc1cc2c(cc1OC)CN(C(=O)CSc1nc3[nH]ncc3c(=O)n1-c1ccccc1)CC2", "AC50": "12.6 µM [rising, single point]"},
      {"smiles": "CCC(C)n1c(-c2cccs2)nc2nc3ccccc3nc21", "note": "(centres undefined)", "AC50": "10 µM [rising, partial curve]"},
      {"smiles": "CCN(CC)c1nc(N)nc(NS(=O)(=O)c2ccc(Cl)cc2)n1", "AC50": "5.01 µM [falling, single point]"},
      {"smiles": "Cc1ccc2c(c1)C(O)(c1c(C)[nH]c3ccccc13)C(=O)N2", "note": "(centres undefined)", "AC50": "31.6 µM [falling, single point]"},
      {"smiles": "CCC(Sc1nc(C)cc(=O)[nH]1)C(=O)Nc1ccc(Cl)cn1", "note": "(centres undefined)", "AC50": "10 µM [rising, partial curve]"},
      {"smiles": "CC(=O)Nc1nc2n(n1)C(c1ccccc1)C=C(c1ccccc1)N2", "note": "(centres undefined)", "AC50": "12.6 µM [rising, single point]"},
      {"smiles": "O=c1c(-c2cccs2)nc2cnc(Nc3ccccc3)nc2n1C[C@H]1CCCO1", "AC50": "0.794 µM [rising, full curve]"},
      {"smiles": "O=c1cc(-c2ccccc2)[nH]c2[nH]n(-c3ccccc3)c(=O)c12", "AC50": "12.6 µM [falling, partial curve]"},
      {"smiles": "O=Cc1ccc(Cl)c(Cl)c1", "AC50": "1 µM [falling, full curve, poor fit]"},
      {"smiles": "C[C@@H](C(=O)NCc1cccc2ccccc12)[C@H]1C[C@]1(C)[C@H](NC(=O)OCc1ccccc1)c1ccccc1", "AC50": "2 µM [falling, full curve, poor fit]"},
      {"smiles": "Clc1ccc(-c2nn3c(-c4ccncc4)nnc3s2)c(Cl)c1", "AC50": "3.16 µM [falling, full curve, poor fit]"},
      {"smiles": "NC(=O)c1sc2nc3c(c(-c4cccs4)c2c1N)CCCC3", "AC50": "0.01 µM [falling, full curve, poor fit]"},
      {"smiles": "c1ccc(Nc2ncnc3ccc(-c4ccoc4)cc23)cc1", "AC50": "5.01 µM [falling, partial curve]"},
      {"smiles": "CCOC(=O)c1ccc(-n2[nH]c(-c3ccccc3)cc2=O)cc1", "AC50": "5.01 µM [falling, partial curve]"},
      {"smiles": "Cc1ccc(C(C)C)c(OCC(=O)Nc2ccc(Cl)cn2)c1", "AC50": "10 µM [rising, partial curve]"},
      {"smiles": "N[C@@H](Cn1cc(F)c(=O)[nH]c1=O)C(=O)O", "AC50": "0.02 µM [rising, full curve, poor fit]"},
      {"smiles": "OC1CCN(c2ncnc3nc[nH]c23)CC1", "AC50": "12.6 µM [rising, single point]"},
      {"smiles": "CCn1c(SCC(=O)Nc2cc(NC(C)=O)ccc2OC)nnc1-c1ccccn1", "AC50": "7.94 µM [rising, partial curve, poor fit]"},
      {"smiles": "c1ccc(-c2nc3ccccc3o2)nc1", "AC50": "0.316 µM [falling, partial curve]"},
      {"smiles": "N#Cc1cc2c(nc1SCc1cccnc1)CCCCC2", "AC50": "12.6 µM [rising, partial curve]"},
      {"smiles": "c1ccc(C(Cc2nc(-c3ccccn3)no2)c2ccccc2)cc1", "AC50": "10 µM [falling, single point]"},
      {"smiles": "C=CCn1c(=O)c(C(=O)NCCc2ccccc2)c(O)c2ccccc21", "AC50": "1.58 µM [rising, full curve, poor fit]"},
      {"smiles": "COc1cccc(-n2c(SCC(=O)Nc3cc(C)on3)nc3c([nH]c4ccccc43)c2=O)c1", "AC50": "3.16 µM [rising, full curve]"},
      {"smiles": "COc1cccc(Cn2c(=O)c(-c3ccc(F)cc3)nc3cnc(OC)nc32)c1", "AC50": "6.31 µM [rising, partial curve]"},
      {"smiles": "COc1ccc(Br)cc1C(=O)Nc1ccc(N2CCN(S(C)(=O)=O)CC2)cc1", "AC50": "15.8 µM [rising, single point]"},
      {"smiles": "CN(C)CC(C)(C)NS(=O)(=O)c1ccc(Cl)cc1", "AC50": "0.00316 µM [falling, full curve, poor fit]"},
      {"smiles": "COc1ccc(C2CC(=O)Nc3ccccc3S2(=O)=O)cc1OC", "note": "(centres undefined)", "AC50": "0.0158 µM [falling, full curve, poor fit]"},
      {"smiles": "CCCCn1c(SCC(=O)Nc2cc(C)on2)nnc1-c1cccnc1", "AC50": "5.01 µM [falling, single point]"},
      {"smiles": "Cc1cccc(-n2ncc3c(NCc4ccccc4)ncnc32)c1", "AC50": "10 µM [rising, partial curve]"},
      {"smiles": "O=C(CCc1ccccc1)NCc1ccccn1", "AC50": "0.00316 µM [falling, full curve, poor fit]"},
      {"smiles": "CCOc1ccc(Nc2cc(C)nc(-n3nc(C)cc3C)n2)cc1", "AC50": "5.01 µM [rising, partial curve]"},
      {"smiles": "Cc1ccccc1-n1c(=O)cc(N2CC(C)OC(C)C2)[nH]c1=O", "note": "(centres undefined)", "AC50": "0.00398 µM [falling, full curve]"},
      {"smiles": "COCCn1c(=N)c(C(=O)NCCc2ccc(OC)cc2)cc2c(=O)n3cccc(C)c3nc21", "AC50": "2.51 µM [rising, full curve]"},
      {"smiles": "CCOC(=O)C1CCN(C(c2cccs2)c2sc3nc(C)nn3c2O)CC1", "note": "(centres undefined)", "AC50": "5.01 µM [rising, partial curve]"}
    ]}
  ]
}
